PubChem BioAssay AID1508588, Peter MacCallum Cancer Centre, 2020
In all, the deposit lists about 18,000 reagents; this is a random part of them. Over the whole deposit, 790 (4.4%) are marked active. 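Calls rest on a combination of fold-change classes in drug and vehicle arms, not all shown here.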 Entries without a mark were called inactive. The numbers tell different reagents against one gene apart.

Screen: 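Knock-downs boosting vemurafenib effects on melanoma cell growth or lactate release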 (primary screen)
Cells: human WM266.4 melanoma cells (BRAF V600 mutant)
Knock-down reagent: siRNA pool against human genes, 40 nM
Time to read-out: 96 h from transfection to read-out
Treatment: vemurafenib 300 nM (about IC25), added 48 h after transfection, for 48 h; comparison arm got DMSO vehicle only
Read-out: 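Cell gain (DAPI nuclei at end minus before drug, mean of two replicates) and medium lactate by absorbance per cell, both as ratio to non-targeting siRNA, also grouped into fold-change classes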
Scale: cell gain with vemurafenib: higher = more cell gain than with non-targeting siRNA; lactate per cell with vemurafenib: higher = more lactate made per cell
Active means: 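a knock-down counts as enhancing when its fold-change classes with vehicle and with vemurafenib, taken together, show a stronger drug effect on cell gain or lactate per cell; exact class pairs not stated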
Meaning of the calls: active = enhances vemurafenib effect; inactive = no enhancement seen

BEND4 → cell gain with vemurafenib: 0.55; lactate per cell with vemurafenib: 1.27
GAS1 → cell gain with vemurafenib: 0.42; lactate per cell with vemurafenib: 1.39
SLC25A4 → cell gain with vemurafenib: 0.42; lactate per cell with vemurafenib: 0.48
NDUFS3 → cell gain with vemurafenib: 0; lactate per cell with vemurafenib: 3.12
PACSIN3 → cell gain with vemurafenib: 0.69; lactate per cell with vemurafenib: 2.24
SLC12A9 → cell gain with vemurafenib: 0.68; lactate per cell with vemurafenib: 0.99
TMED10 → cell gain with vemurafenib: 0.14; lactate per cell with vemurafenib: 1.68
COQ8B → cell gain with vemurafenib: 0.15; lactate per cell with vemurafenib: 0.92
CLDN23 → cell gain with vemurafenib: 0.42; lactate per cell with vemurafenib: 1.75

Continued; the last 2 above are carried over.
COQ8B → cell gain with vemurafenib: 0.15; lactate per cell with vemurafenib: 0.92
CLDN23 → cell gain with vemurafenib: 0.42; lactate per cell with vemurafenib: 1.75
AK4 #1 → cell gain with vemurafenib: 0.96; lactate per cell with vemurafenib: 0.51
AK4 #2 → cell gain with vemurafenib: 0.81 (active); lactate per cell with vemurafenib: 0.46
LEMD2 → cell gain with vemurafenib: 1.16 (active); lactate per cell with vemurafenib: 0.4
SPRY2 → cell gain with vemurafenib: 0.95; lactate per cell with vemurafenib: 0.54
COPZ2 → cell gain with vemurafenib: -0.09; lactate per cell with vemurafenib: 3.43
EIF2B3 → cell gain with vemurafenib: 0.7; lactate per cell with vemurafenib: 0.64
SORBS2 → cell gain with vemurafenib: 0.84; lactate per cell with vemurafenib: 0.88
PLEKHG4B → cell gain with vemurafenib: 0.64; lactate per cell with vemurafenib: 0.71
TMEM86A → cell gain with vemurafenib: 0.44; lactate per cell with vemurafenib: 1.32
ZNF561 → cell gain with vemurafenib: 1.09 (active); lactate per cell with vemurafenib: 0.66
ACTR10 → cell gain with vemurafenib: 0.67; lactate per cell with vemurafenib: 1.07
ATP8A2 → cell gain with vemurafenib: 0.83; lactate per cell with vemurafenib: 0.94
TENT5A → cell gain with vemurafenib: 0.61; lactate per cell with vemurafenib: 1.12
TRAPPC5 → cell gain with vemurafenib: 0.88; lactate per cell with vemurafenib: 0.69
TUBA3E → cell gain with vemurafenib: 0.01; lactate per cell with vemurafenib: 1.79
TTBK2 → cell gain with vemurafenib: 0.28; lactate per cell with vemurafenib: 1.79
OR10A2 → cell gain with vemurafenib: 0.16; lactate per cell with vemurafenib: 1.34
HERPUD1 → cell gain with vemurafenib: 0.39; lactate per cell with vemurafenib: 1.15
